In all, about 340,000 compounds went through this assay and about 170 (0.05%) were called active. Inconclusive results, whose numbers are uncertain, are shown with a selection of clear calls. Calls come from the whole dose curve; as a rule, active = well fitted inhibition curve with a large enough effect in the signal ratio, with a control signal flat (not every such curve was filed as active); inconclusive = small, poorly fitted or top-dose-only effect, or effect the other way, or a change in a side signal; inactive = flat fitted curve, though single readings scatter; the % refers to the signal ratio. Potencies beside an inconclusive call are fits to weak or partial responses and may not hold up.
Test: qHTS Assay to Find Inhibitors of Chronic Active B-Cell Receptor Signaling;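 for activity change, negative = inhibition: plate controls were basal doxycycline-induced cells for no effect and cells given 10 µM MG132 for full effect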
Settings: ABC-DLBCL IkBa-CBG/CBR reporter, luminescence ratio (green luciferase fused to IkBa over red control in TMD8 lymphoma cells), 4 h; activity change, negative = inhibition: at 46.1 µM (top of the series) unless noted
Summary of the method: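 Concentration-response series (up to 46 uM) were applied to TMD8 dual-reporter cells for 4 h at 37C with doxycycline. Green/red ratio, after filter-overlap correction, defined %Activity; red signal alone was normalised to basal cells and zero luminescence.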
Potency is the fitted concentration of half-maximal effect.

Structure (SMILES) | Potency | activity change, negative = inhibition
COc1ccc(N2CCN(CC(=O)Nc3nnc(-c4ccccc4)s3)CC2)cc1 | inconclusive: 13 µM [falling, partial curve] | –
COc1cc(-c2nn3c(C4CCCCC4)nnc3s2)cc(OC)c1OC | – | inconclusive: -9.66%
O=C(CCN1C(=O)/C(=C/c2cccc(Br)c2)SC1=S)Nc1cccnc1 | inconclusive: 10 µM [falling, partial curve] | –
O/N=C/c1ccn(-c2ccc(Br)cc2)c1 | – | inconclusive: 3.39%
Cc1cc(C)c2nc(NC(=O)CN3C(=O)NC4(CCCC4)C3=O)sc2c1 | – | inconclusive: -2.49%
C=CCn1c(SCC(=O)Nc2c(C)n(C)n(-c3ccccc3)c2=O)nc2sc(C)c(C)c2c1=O | inconclusive: 20.6 µM [falling, single point] | –
FC(F)Oc1ccc(NC(=S)NCc2ccccc2)cc1Cl | – | inactive: 3.54%
N/C(=N\OC(=O)c1ccc2ccccc2c1)c1cccc([N+](=O)[O-])c1 | – | inconclusive: 4.86%
COc1ccc(C(=O)CC(=O)C(=O)Nc2cc(C)ccc2C)cc1 | – | inactive: -2.03%
Nc1ccc(C(=O)c2cccs2)cc1 | – | inconclusive: 1.09%
CSc1ccccc1NC(=O)Cc1ccccc1[N+](=O)[O-] | inconclusive: 4.47 µM [falling, full curve, poor fit] | –
CC(C)OCCCNC(=O)c1c(N)n(/N=C/c2ccccn2)c2nc3ccccc3nc12 | – | inactive: 5.55%
CN(C(=O)COC(=O)c1ccccc1C(=O)N1CCN(c2ccccc2)CC1)c1ccccc1 | – | inactive: 3.52%
CC(=O)Nc1ccc(C(=O)OCc2ccccc2Br)cc1 | – | inactive: -7.99%
Nc1nc(SCC(=O)Nc2cc(Cl)ccc2Cl)n[nH]1 | – | inactive: -2.97%
COc1ccc(N2CC(C(=O)O)CC2=O)cc1 (configuration not stated) | – | inconclusive: 9.27%
Cc1ccc(C(=O)CSc2nc(-c3ccccc3)ccc2C#N)cc1 | – | inactive: -0.0867%
Cc1ccc2ncnc(Oc3ncccc3[N+](=O)[O-])c2c1 | – | inactive: -8.57%
COc1cccc(-c2cc3nc(-c4ccccc4)cc(N4CCCC(O)C4)n3n2)c1 (configuration not stated) | – | inconclusive: -17.2%
CC(C)(C)NC(=O)COC(=O)c1ccccc1OCC(=O)Nc1ccc(Br)cc1 | inconclusive: 23.1 µM [falling, partial curve] | –
Cc1cccc(N(C)S(=O)(=O)c2nnc(NC(=O)C3CCCCC3)s2)c1 | – | inactive: 10.3%

Structure (SMILES) | Potency | activity change, negative = inhibition
CCc1cc2c(=O)n(Cc3ccco3)c(SCC(=O)N3CCCc4ccccc43)nc2s1 | – | inconclusive: 0.446%
CCCCNC(=O)c1cc2c(=O)n3cccc(C)c3nc2n1C | – | inconclusive: 16.7%
Cc1ccc(CC(=O)Nc2ccc(C(=O)N3CCOCC3)cc2)cc1 | – | inactive: 2.92%
O=C(Nc1ccc(N2CCOCC2)cc1)c1cccc2c(Br)cccc12 | – | inconclusive: -0.718%
COc1ccccc1OCCn1cc(/C=C(\C#N)C(=O)NCc2cccs2)c2ccccc21 | – | inconclusive: 7.69%
COc1cc(-c2ccno2)ccc1S(=O)(=O)N1CCN(c2ccc(F)cc2)CC1 | – | inactive: -0.642%
CC1(C)OC(=O)C(=NNc2ccccc2[N+](=O)[O-])C(=O)O1 | inconclusive: 20 µM [falling, partial curve, poor fit] | –
O=C(/C=C/c1ccnc2ccccc12)c1cccs1 | inconclusive: 17.8 µM [falling, partial curve] | –
CN1CCN(c2ccc(CNC(=O)c3cc4ccccc4o3)cc2)CC1 | inconclusive: 7.08 µM [falling, partial curve] | –
Cc1ccccc1NC(NC(=O)c1cccs1)C(Cl)(Cl)Cl (configuration not stated) | – | inactive: 4.55%
O=c1c2[nH]cnc2n(-c2cccc(Br)c2)c(=O)n1Cc1ccccc1 | – | inconclusive: 4.25%
COc1ccccc1CCC(=O)Nc1ccc2c(c1)CN(CCCn1cccn1)CC2 | – | inconclusive: -14.7%
CCOC(=O)c1cnc(SCc2cccc(C)c2)nc1N | – | inactive: -3.49%
O=S(=O)(c1ccccc1)N1CCCC1c1nc2ccccc2s1 (configuration not stated) | inconclusive: 3.16 µM [falling, partial curve, poor fit] | –
O=C(O)c1ccc(Nc2ncnc3ccccc23)cc1 | inconclusive: 12.6 µM [falling, partial curve] | –
COc1ccccc1NC(=S)NC(NC(=O)C(C)C)C(Cl)(Cl)Cl (configuration not stated) | inconclusive: 25.1 µM [falling, single point] | –
Cc1ccc2c(c1)[C@H]1[C@H](CO2)[C@H](c2ccccc2)[C@]2(C)C(=O)N(Cc3ccco3)CC(=O)N12 | – | inconclusive: -1.52%
COc1ccc(S(=O)(=O)N(CC(=O)NCc2ccco2)C2CCCCC2)cc1OC | – | inconclusive: -2.25%
O=C(/C=C/c1ccc2c(c1)OCO2)NCCSCc1ccc(Cl)cc1Cl | – | inconclusive: -0.922%
Cc1nnnn1/C(=C\c1ccccc1)C(=O)OCC(=O)N1CC2(C)CC1CC(C)(C)C2 (configuration not stated) | – | inconclusive: -0.043%
O=C(CCc1ccccc1)NNC(=O)c1ccccn1 | inconclusive: 35.5 µM [falling, single point] | –

Single records (already shown). Order of values: Potency	activity change, negative = inhibition
`CN1CCN(c2ccc(CNC(=O)c3cc4ccccc4o3)cc2)CC1` in the list: inconclusive: 7.08 µM [falling, partial curve]	–
`COc1ccccc1OCCn1cc(/C=C(\C#N)C(=O)NCc2cccs2)c2ccccc21` in the list: –	inconclusive: 7.69%
`O=C(CCc1ccccc1)NNC(=O)c1ccccn1` in the list: inconclusive: 35.5 µM [falling, single point]	–
`O=c1c2[nH]cnc2n(-c2cccc(Br)c2)c(=O)n1Cc1ccccc1` in the list: –	inconclusive: 4.25%

Next structures follow:

Structure (SMILES) | Potency | activity change, negative = inhibition
COc1cc(/C=N/NC(=O)C(=O)Nc2ccccn2)ccc1O | inconclusive: 18.4 µM [falling, single point] | –
N#Cc1c2n(c3c(=O)n(CC(=O)c4ccc([N+](=O)[O-])cc4)cnc13)CCCCC2 | – | inactive: 4.75%
CCn1c(SCC(=O)Nc2nc(-c3ccc(C)cc3)cs2)nnc1-c1ccccc1O | – | inconclusive: -2.03%
COc1cccc(/C=N/NC(=O)CC(=O)NCCc2ccc(OC)c(OC)c2)c1 | – | inconclusive: 3.74%
C/C(Cn1nnc([N+](=O)[O-])n1)=N\NC(=O)c1cccc(Cl)c1 | inconclusive: 20 µM [falling, single point] | –
O=C(Nc1cc2c(cc1C(=O)O)OCCCO2)c1ccc(C(F)(F)F)cc1 | inconclusive: 35.5 µM [falling, partial curve, poor fit] | –
CCc1cccc(NC(=O)CN(C)C2=NS(=O)(=O)c3ccccc32)c1 | – | inconclusive: 6.67%
CN1CCN(C2=Cc3ccccc3Sc3cc(F)c(F)cc32)CC1 | – | inactive: -5.75%
CCOC(=O)C1CCN(S(=O)(=O)c2ccc3c(c2)NC(=O)C(C)S3)CC1 (configuration not stated) | – | inconclusive: 1.48%
Cc1cc(N2CCN(c3nc(-c4ccc([N+](=O)[O-])cc4)cs3)CC2)c2ccccc2n1 | – | inactive: 4.65%
NC1=NC(=O)S/C1=C\c1ccc(O)cc1 | – | inconclusive: -23.9%
CCCN(CCC)c1ncnc2c1cnn2-c1ccc(OC)cc1 | – | inconclusive: -15.2%
O=C(Nc1c2c(nn1-c1ccc(Cl)cc1)CS(=O)(=O)C2)c1cccc(Cl)c1 | – | inconclusive: -0.32%
N=C1/C(=C/c2cccn2-c2cccc([N+](=O)[O-])c2)C(=O)N=C2SC=CN12 | – | inconclusive: 7.89%
CCCCCCCn1c(=O)c(C(=O)OC)c(N)c2ccccc21 | – | inactive: 0.13%
Cc1ccc(S(=O)(=O)NCCC(=O)OCc2ccc([N+](=O)[O-])cc2)cc1C | – | inactive: 2.31%
COc1cccc(OC)c1OCC(=O)Nc1ccc(S(=O)(=O)N2CCCC2)cc1 | – | inconclusive: -3.11%
COc1cccc(N=c2oc3cc(O)ccc3cc2C(=O)NCC2CCCO2)c1 (configuration not stated) | – | inconclusive: 321%
O=C(c1ccccc1)N1CCN(C2c3cccc4cccc(c34)C2NS(=O)(=O)c2ccccc2)CC1 (configuration not stated) | – | inconclusive: 4.93%
Cc1ccc(C(=O)NCC(=O)OCC(=O)Nc2ccc3[nH]c(=O)[nH]c3c2)cc1 | – | inactive: -0.794%
COc1ccccc1NS(=O)(=O)c1cc(NC(=O)c2ccc(Cl)nc2)ccc1Cl | – | inconclusive: -2.26%

Structure (SMILES) | Potency | activity change, negative = inhibition
Clc1ccc(-c2cc(CN3CCOCC3)no2)cc1 | inconclusive: 17.8 µM [falling, partial curve, poor fit] | –
Cc1cc(C)c(NS(=O)(=O)c2ccc3c(c2)NC(=O)CC(=O)N3)c(C)c1 | – | inconclusive: 0.966%
COc1ccc(CCN2C(=O)CN(C3CCCCCC3)C(=O)C2c2ccc(C)cc2)cc1OC (configuration not stated) | – | inactive: 5.89%
CCOc1ccc(N2C(=O)CC(N(CCc3ccc(OC)cc3)C(=O)c3cccc(F)c3)C2=O)cc1 (configuration not stated) | – | inactive: -2.69%
O=C(O)c1cccc(Cl)n1 | – | inconclusive: 10.2%
COc1ccc(NC(=O)COC(=O)c2cc([N+](=O)[O-])ccc2N2CCOCC2)cc1 | – | inconclusive: -14.8%
COc1ccc(-c2cc(=O)c3cc(OC)ccc3[nH]2)cc1 | – | inactive: 0.979%
COc1cc(CN2CCN(S(=O)(=O)c3ccc(F)cc3)CC2)cc(OC)c1OC | – | inconclusive: -1.63%
CC(CC(=O)NNC(=O)c1ccncc1)c1ccccc1 (configuration not stated) | – | inactive: -3.31%
CN(CC(=O)Nc1ccc(N2CCOCC2)cc1)Cc1c(O)ccc2ccccc12 | – | inconclusive: 8.29%
O=C(N/N=C/C=C/c1ccco1)c1cnccn1 | inconclusive: 35.5 µM [falling, single point] | –
O=C(Nc1cc(C(F)(F)F)ccc1N1CCOCC1)c1c(F)c(F)c(F)c(F)c1F | – | inconclusive: -0.438%
CC(C)NC(=O)c1cc(-c2cccs2)on1 | inconclusive: 20.6 µM [falling, partial curve] | –
Cc1cc(C)n2nc(N)c(N=Nc3ccccc3)c2n1 | inconclusive: 35.5 µM [falling, single point] | –
Cc1ccc2nc(SCC(=O)NC(=O)NCc3ccco3)[nH]c2c1 | – | inconclusive: -1.43%
CN(CC(=O)Nc1ccccc1F)Cc1cccs1 | – | inconclusive: 22.5%
COc1ccc(CC(=O)N2CCc3cc(OC)c(OC)cc3C2)cc1 | – | inconclusive: -18.8%
O=C(Nc1ncc2c(n1)CC(c1ccccc1)CC2=O)c1ccco1 (configuration not stated) | – | inconclusive: -2.19%
COc1ccc(Cl)cc1NC(=S)N1CCN(C(=O)c2ccco2)CC1 | – | inconclusive: 8.2%

Source: PubChem BioAssay AID493014 (National Center for Advancing Translational Sciences (NCATS), 2011)
